Taken from: PubChem BioAssay AID504784 (Drosophila RNAi Screening Center, 2011)

- Purpose: 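Search for regulators of lipid droplet storage in oleate-fed fly cells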 (primary screen)
- System: Drosophila Kc167 embryonic cells
- Reagents: long dsRNA against Drosophila genes, about 250 ng dsRNA per well
- Timing: 4 days
- Conditions: cells fed 400 µM oleic acid bound to BSA
- Detection: 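Cells imaged and segmented; ratio of lipid droplet area to nuclear area, log-transformed, then normalised as a B-score over the screen; higher means more stored lipid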
- Direction: droplet/nuclear area B-score: higher = more stored lipid (overstorage)
The deposit covers about 17,000 reagents; below is a random part of those that have a named target and a result. 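Each column is one replicate's B-score; the combined score over replicates was not deposited, so single values may mislead.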 A plus sign joins genes that one reagent is predicted to hit. Further read-outs or replicates are left out here. Reagent sequences are not shown.

no.	gene knocked down	dsRNA	droplet/nuclear area B-score, replicate 1
1	CG9582	DRSC03267	-0.244
2	CG3581	DRSC15499	1.03
3	kz	DRSC18786	-1.38
4	Spt7	DRSC19997	0.0083
5	CG5348	DRSC06933	-1.02
6	CG2260	DRSC18223	-0.257
7	CG2931	DRSC12324	-0.912
8	CG13833	DRSC14683	-0.556
9	rad (retired record)	DRSC19687	-2.29
10	rad (retired record)	DRSC22865	1.99
11	CG15429	DRSC00444	-0.951
12	gb	DRSC15961	-0.756
13	CG10910	DRSC06007	2.28
14	CG30016	DRSC05242	2.22
15	CG8260	DRSC20098	0.0775
16	Mst85C	DRSC16746	-0.236
17	CG8252	DRSC07126	1.57
18	CG31141	DRSC13646	0.619
19	GILT1	DRSC16565	-0.0806
20	128up	DRSC05027	-0.357
21	CG13744	DRSC06415	0.53
22	CR12628 + Mgstl	DRSC03702	0.026
23	CR12628 + Mgstl	DRSC20568	0.0827
24	lolal	DRSC06948	0.323
25	GCS2beta	DRSC02960	-0.674
26	CG40198	DRSC21068	0.0515
27	CG15212	DRSC10212	0.186
28	CG13739	DRSC06410	2.72
29	CG13739	DRSC23200	-0.0318
30	Parg	DRSC18696	-1.03
31	sky	DRSC02383	1.81
32	sky	DRSC03214	1.06
33	sky	DRSC03215	-0.332
34	Usp7	DRSC18909	-0.221
35	Usp7	DRSC19604	-1.51
36	Tsp42Eh	DRSC06190	0.376
37	CG3894	DRSC01762	3.11
38	CG3894	DRSC04012	-2.32
39	CG3894	DRSC04429	3.2
40	CG32071	DRSC22298	0.287
41	CG10165	DRSC02017	0.957
42	CG10600	DRSC02074	-2.45
43	CG13895	DRSC08365	-0.0398
44	Txl	DRSC11310	-1.94
45	Reph	DRSC00634	1.23
46	Reph	DRSC22031	0.456
47	NimC1	DRSC01879	-1.04
48	Ser12	DRSC00786	0.621
49	Dgat2	DRSC06803	1.18
50	CG14324	DRSC14803	0.676
51	MYPT-75D	DRSC10743	0.00221
52	Spn28Dc	DRSC03029	2.94
53	Synd	DRSC15116	3.67
54	CG31525	DRSC12004	-0.0281
55	CG32437	DRSC11760	0.245
56	CG32437	DRSC22020	-0.281
57	CG17601	DRSC20639	-0.0682
58	CG13707	DRSC08316	-0.581
59	TTLL3A	DRSC02143	-0.503
60	wun	DRSC07719	0.0253
61	Zip88E	DRSC15562	0.0899
62	P5cr-2	DRSC15889	-1.23
63	CG12868	DRSC06207	-0.332
64	Proc-R	DRSC18410	-0.0271
65	mthl12	DRSC12964	-1.34
66	DCP2	DRSC10597	3.53
67	ng4	DRSC18805	-0.786
68	PolZ2	DRSC12325	-0.593
69	Cht10	DRSC03766	-0.531
70	Cht10	DRSC03767	-0.0482
71	Cht10	DRSC03768	0.333
72	CG5895	DRSC10554	0.631
73	PHDP	DRSC04635	0.408
74	kappaB-Ras + CG30503	DRSC06619	0.0955
75	kappaB-Ras + CG30503	DRSC07636	-0.225
76	Lamtor2 + CG30120	DRSC05726	-1.39
77	Lamtor2 + CG30120	DRSC06922	-0.0141
78	CG33346	DRSC22898	0
79	CG8814	DRSC00707	1.27
80	yellow-f2	DRSC16372	0.902
81	CG1575	DRSC18069	2.84
82	CG4393	DRSC15573	1.38
83	aly	DRSC08707	1.21
84	aly	DRSC21784	-0.323

Looked up above:
Under “droplet/nuclear area B-score, replicate 1”, CG15212 [DRSC10212] has 0.186
For “droplet/nuclear area B-score, replicate 1”, CG3894 [DRSC04429] is entered as 3.2
Entry for CG5348 [DRSC06933] in “droplet/nuclear area B-score, replicate 1”: -1.02
Zip88E [DRSC15562], droplet/nuclear area B-score, replicate 1 → 0.0899
gb [DRSC15961], droplet/nuclear area B-score, replicate 1: -0.756
For “droplet/nuclear area B-score, replicate 1”, CG13833 [DRSC14683] reads -0.556
